Assay results as given in the supplement of paper PMC3334620.
Whole data set: some 33,000 sequences, median “E-score (-0.5 to 0.5)” near -0.0014, cut for the highest 2% near 0.25. This is one part of the list.

What follows are sequences tested against T1, Cad1 (UniProt P24813) (assay: PBM E-score (8-mer binding enrichment) (E-score (-0.5 to 0.5)); higher = stronger / more preferred TF binding). Conditions: protein concentration: 100 nM; construct: GST-full length.
T1 sequence: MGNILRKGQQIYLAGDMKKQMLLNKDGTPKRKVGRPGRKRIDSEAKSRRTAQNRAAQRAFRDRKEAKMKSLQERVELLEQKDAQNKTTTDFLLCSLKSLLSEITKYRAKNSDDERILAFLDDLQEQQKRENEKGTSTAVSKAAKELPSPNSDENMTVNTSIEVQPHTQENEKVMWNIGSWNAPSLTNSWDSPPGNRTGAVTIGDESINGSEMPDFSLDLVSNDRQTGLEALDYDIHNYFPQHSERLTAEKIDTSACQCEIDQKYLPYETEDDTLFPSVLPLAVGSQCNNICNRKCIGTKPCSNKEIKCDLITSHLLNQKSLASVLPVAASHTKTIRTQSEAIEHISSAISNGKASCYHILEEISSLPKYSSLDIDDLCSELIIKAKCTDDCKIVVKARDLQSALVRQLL
Experimental: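 Universal 'all 10-mer' protein binding microarrays (Agilent AMADID 015681) probed with GST-tagged S. cerevisiae TFs (full-length or DBD) made by in vitro transcription/translation (PURExpress), about 100-200 nM. Bound TF was detected with fluorescent anti-GST. Each ungapped 8-mer (which stands for itself and its reverse complement) is scored by the PBM enrichment score (E-score), a modified Wilcoxon-Mann-Whitney statistic from -0.5 to +0.5, computed with the Universal PBM Analysis Suite. Scale: above 0.35 generally sequence-specific binding.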

| Sequence | PBM E-score |
| --- | --- |
| GCGGGAAC | -0.0403 |
| AACCTCCA | -0.336 |
| GACTGCGA | -0.0379 |
| GATGGTGA | -0.037 |
| CCCACCAC | -0.0583 |
| ATCTACCA | 0.165 |
| ACCGCCTG | -0.142 |
| GAGTGACA | 0.0819 |
| GAGGACTA | -0.214 |
| CTAACGTC | 0.149 |
| CACGAACG | -0.0325 |
| CGCTGGAG | -0.0413 |
| ATGCCTAA | -0.098 |
| AAGAAGCG | -0.184 |
| CGATTCAC | -0.0442 |
| AACTGGAC | -0.0124 |
| ATACGCAA | 0.119 |
| ACTGGGGA | -0.315 |
| AGTCTTGA | -0.0713 |
| AGGACACG | -0.0325 |
| AATTATCA | 0.266 |
| CCGGGCTC | -0.228 |
| ACGCCAAG | -0.356 |
| GAACGAGC | 0.115 |
| AGGGTCGC | -0.0644 |

| Sequence | PBM E-score |
| --- | --- |
| AATAAGCA | 0.343 |
| AACGAAAA | -0.0169 |
| AACGAGAA | 0.0567 |
| CTTACGTA | 0.328 |
| CTAACTCC | -0.111 |
| TTATCGAA | 0.155 |
| ATCGTAGA | -0.1 |
| TAGTCGGA | 0.0309 |
| ATAAGAAA | 0.209 |
| ACTAACCG | 0.0149 |
| ACCCGAGT | 0.0829 |
| TACCTACA | 0.0916 |
| AACTTTCC | -0.0412 |
| ACTCGGGC | 0.11 |
| ATGATGTA | 0.182 |
| AGCACATA | 0.088 |
| ATTTCCCC | -0.0772 |
| GATGCACA | -0.038 |
| GTTGTCGA | 0.00061 |
| GGTATTTA | 0.0493 |
| AAAAGAAG | 0.0683 |
| ACGGACCG | -0.145 |
| GAACTTGA | 0.152 |
| ATGCTTTC | 0.0666 |
| CTAACCGC | -0.194 |

| Sequence | PBM E-score |
| --- | --- |
| CCGGAGAG | -0.126 |
| AGGTGGTG | -0.0647 |
| GATGATCC | -0.0883 |
| CTATAGAA | -0.0852 |
| CGTAGGAA | 0.0214 |
| ACAGCCGT | -0.0158 |
| AGACCTGG | -0.0269 |
| TCATTAGA | 0.0948 |
| TCGCGCCA | -0.0488 |
| ATTACTAC | 0.0954 |
| ATTAGCAG | 0.0216 |
| AGTTTCGA | -0.0561 |
| CCATTGGC | -0.116 |
| CGGCTCGA | 0.198 |
| ATGGATGG | -0.125 |
| TCTAGTAA | 0.169 |
| CATCCTGG | 0.155 |
| ATTACCGG | 0.0189 |
| GCTAGCGA | -0.0733 |
| ACGGAGAC | 0.128 |
| GATTAACA | 0.163 |
| ACAAAGCG | 0.168 |
| GGCGTATA | -0.292 |
| ACCGAACC | -0.24 |
| ATGCTAGA | 0.0246 |

53 entries from above in another layout:
Sequence,PBM E-score
AACCTCCA,-0.336
GACTGCGA,-0.0379
GATGGTGA,-0.037
ATCTACCA,0.165
ACCGCCTG,-0.142
GAGTGACA,0.0819
GAGGACTA,-0.214
CACGAACG,-0.0325
CGCTGGAG,-0.0413
CGATTCAC,-0.0442
AACTGGAC,-0.0124
ATACGCAA,0.119
AGTCTTGA,-0.0713
AGGACACG,-0.0325
AATTATCA,0.266
CCGGGCTC,-0.228
GAACGAGC,0.115
AGGGTCGC,-0.0644
AATAAGCA,0.343
AACGAAAA,-0.0169
CTTACGTA,0.328
ATCGTAGA,-0.1
TAGTCGGA,0.0309
ATAAGAAA,0.209
ACCCGAGT,0.0829
TACCTACA,0.0916
ACTCGGGC,0.11
ATGATGTA,0.182
AGCACATA,0.088
GATGCACA,-0.038
GGTATTTA,0.0493
AAAAGAAG,0.0683
GAACTTGA,0.152
ATGCTTTC,0.0666
CTAACCGC,-0.194
CCGGAGAG,-0.126
GATGATCC,-0.0883
CGTAGGAA,0.0214
ACAGCCGT,-0.0158
AGACCTGG,-0.0269
TCATTAGA,0.0948
TCGCGCCA,-0.0488
ATTACTAC,0.0954
CCATTGGC,-0.116
CGGCTCGA,0.198
TCTAGTAA,0.169
CATCCTGG,0.155
ATTACCGG,0.0189
GCTAGCGA,-0.0733
ACGGAGAC,0.128
GATTAACA,0.163
ACAAAGCG,0.168
GGCGTATA,-0.292

(list continues)

| Sequence | PBM E-score |
| --- | --- |
| AAGTTATA | -0.0658 |
| AAGGCTTG | -0.0928 |
| CAACGTAC | -0.00969 |
| CCCTCTTA | -0.0705 |
| ACGCATGC | 0.283 |
| CGATAGCG | 0.0571 |
| CCAGCGGA | -0.25 |
| ACTAAATA | 0.233 |
| AACATAGC | 0.0961 |
| GCATAGGC | -0.0745 |
| CACATCCA | 0.0306 |
| AGGGGTAT | -0.247 |
| CTATAATA | -0.101 |
| CAAGCATA | -0.0515 |
| GTCGCGGA | -0.035 |
| GGATGTTA | -0.0262 |
| CTCGGAAA | 0.0234 |
| CTTGCAGA | -0.0336 |
| CCAAATAC | 0.013 |
| ACAACACT | 0.189 |
| ACGCCGTA | 0.0685 |
| AATTAGCT | 0.0885 |
| GCCCCCCC | -0.418 |
| GATATTCA | 0.0631 |
| CTGCGGAA | -0.0934 |

Taken from above:
In PBM E-score, GCCCCCCC reads -0.418
In PBM E-score, ACAACACT reads 0.189
In PBM E-score, GTCGCGGA reads -0.035
In PBM E-score, GCATAGGC reads -0.0745

(continued)

| Sequence | PBM E-score |
| --- | --- |
| AGCGCGAA | 0.21 |
| TATTGACA | -0.0118 |
| ACGGATAT | 0.254 |
| CCAGGTCC | -0.273 |
| TCCTTGAA | -0.0701 |
| AGGGTTCG | -0.155 |
| AACACCGT | -0.0022 |
| GACCAGCA | -0.00129 |
| CTCTCACC | 0.015 |
| ACAGCCCT | -0.124 |
| CGACATCG | -0.0602 |
| GTTATCTA | 0.00907 |
| ACCGGTTA | 0.0602 |
| ACATTAAG | 0.151 |
| CCCGCCGA | -0.0624 |
| ATAATCGC | 0.19 |
| GTTGGGTA | 0.0987 |
| GGAGGCTA | -0.166 |
| CCCAAGGC | -0.155 |
| GTGTTATA | 0.141 |
| CCAAAAAG | 0.0477 |
| AATTTTAC | 0.282 |
| ACCACGGG | -0.22 |
| AGCTGGTG | 0.0411 |
| CATTTAGG | -0.158 |

| Sequence | PBM E-score |
| --- | --- |
| CATGGCGG | -0.0395 |
| ATACAGAA | 0.177 |
| CCGTGGCG | 4e-05 |
| CCTTAAAG | 0.0425 |
| GATTATGA | 0.0726 |
| CAAGTTCA | 0.101 |
| CGCGGCTC | 0.0226 |
| CCGTTCGA | 0.118 |
| CTGCAGAA | 0.15 |
| GCTTCGGA | 0.0206 |
| AACCACGA | 0.00513 |
| CAGATGCA | -0.138 |
| CTTGCAAA | 0.105 |
| GAATTGTA | 0.0474 |
| AGAAACAA | 0.0992 |
| CATAACCC | -0.14 |
| ACTGACGA | -0.00793 |
| AGATACTC | -0.0492 |
| GCTGCCAC | 0.0283 |
| AAGGACAT | 0.0161 |
| GAAAAATA | 0.115 |
| AGTCTCCG | 0.18 |
| GCAGTGTA | 0.0475 |
| GAGTACTC | 0.0795 |
| ACAGGCCG | 0.106 |

| Sequence | PBM E-score |
| --- | --- |
| AACACTCA | 0.0112 |
| AGGAGCCA | -0.237 |
| TGGTGGAA | -0.0705 |
| GATCGGCC | -0.00782 |
| GTATGCAC | 0.0448 |
| CACTTTTC | 0.0171 |
| CCGCCGCG | -0.0716 |
| ATCCTTTG | 0.0844 |
| ACCTTTTA | -0.254 |
| ATGCCCGG | -0.0917 |
| AAAATCCT | -0.0176 |
| CCTGGATA | -0.172 |
| CGTCAACG | -0.0333 |
| ACCAGCTC | 0.0456 |
| GATTGTGC | -0.0437 |
| TCGGTAAA | 0.0454 |
| CCTGCCGC | -0.0972 |
| ACATCGCG | 0.1 |
| TAAGTTAA | 0.17 |
| CACTGCAG | 0.0201 |
| CCTAGACG | -0.00053 |
| CTAATTTA | 0.199 |
| ATGGCGTG | 0.172 |
| AGATTCGC | 0.04 |
| ATACCACG | 0.0689 |

| Sequence | PBM E-score |
| --- | --- |
| CACTTTAA | 0.214 |
| CGTGTACA | 0.134 |
| GTAAAAGA | 0.0487 |
| CGAAGCAG | -0.126 |
| AACCAGTG | -0.0556 |
| TTCCTCAA | -0.0277 |
| ACAGCTGG | 0.0155 |
| ACCAAAGT | -0.0716 |
| GAACCTTC | 0.0886 |
| GAAAGCGC | 0.0651 |
| AGAAATGG | -0.0803 |
| ATGATGTC | 0.0748 |
| ACTGAAAT | 0.0771 |
| CCCTCAGG | -0.16 |
| AGTTACTG | -0.0194 |
| CACAAGGC | -0.0672 |
| CAGGAGTC | -0.0614 |
| CCTGGCTA | -0.154 |
| TGAGCTCA | 0.0486 |
| CATCAACA | 0.215 |
| CACATGTG | 0.105 |
| AGACTGGA | -0.204 |
| AATGTCCG | 0.152 |
| GCGTGACC | -0.025 |
| GAATATTC | 0.338 |

| Sequence | PBM E-score |
| --- | --- |
| GACCTGCC | -0.117 |
| CGGTAAAA | 0.221 |
| CACTAACG | -0.101 |
| CCTTCCTC | -0.283 |
| CAATCTAG | 0.0757 |
| CAACCGGA | 0.0544 |
| AAGCCCAA | -0.0469 |
| CACAGAGA | 0.0726 |
| AACGTGGC | 0.0123 |
| AGTATTAC | 0.182 |
| ACTCGGGA | 0.0987 |
| CGATCCGC | 0.163 |
| AAATCGCC | -0.00222 |
| CAATCAAG | 0.0519 |
| CACAGTTA | 0.0697 |
| ATGTAGAA | -0.0904 |
| CGAAAAGA | 0.28 |
| GTTGTAGA | 0.015 |
| CGTTGCTC | -0.0706 |
